Data on 15 molecules can be found in publication PMC6401487.

The chains are these.
T1: Ferredoxin 1 (Fd-1), encoded by TK1694, with C-terminal HA-His6 extension (Thermococcus kodakarensis) (UniProt Q977X3)
T1 sequence: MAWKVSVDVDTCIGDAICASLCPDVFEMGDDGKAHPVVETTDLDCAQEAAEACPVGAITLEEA

T2: Ferredoxin 3 (Fd-3), encoded by TK2012, with C-terminal HA-His6 extension (Thermococcus kodakarensis) (UniProt Q5JDE8)
T2 sequence: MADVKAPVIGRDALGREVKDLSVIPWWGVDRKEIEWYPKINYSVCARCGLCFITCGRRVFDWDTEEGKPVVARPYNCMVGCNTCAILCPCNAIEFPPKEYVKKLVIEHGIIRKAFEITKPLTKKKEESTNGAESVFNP

B1: 2-Oxoisovalerate:ferredoxin oxidoreductase, β subunit (protein, UniProt Q5JIJ9 1-311)
chain: MEIPEQIKKKLTLPAEEHFYAGHTACQGCGAALGLRYVLKAYGRKTIFAIPACCSTIIAGAWPYNTLGANLFQTAFETTGAVLGGIEAALKARGIKVKGEDGVMIVGWAGDGGTADIGLQALSGFLERGHDALYIMYDNEAYMNTGIQRSSSTPYGAWTTNTPGGKRHFLEKRHKKKVIDIVIAHEIPYAATASVAYPEDFIRKLKTAQKTPGPSFIQLFAPCPTGWRSPTDKSIEIARLAVQTAYFPLFEYKEGKYRINMPNPKKEPKPIEEFLKLQGRFKYMTKEDIQVLQEWVLREWEKLKKLAEVFG
B2: Geranylgeranyl hydrogenase (protein, UniProt Q5JE27 1-395)
chain: MTWKYDVVVVGSGIAGPIVARNVAKAGFSVLLIDKKWAIGTPKQCAEAISIKVFDKYDIPYDKRFINREIYGAKLYSPSGYELEMRYKEVSGVILERKVFDKMLAYYAAKAGADVLARTEALDVIRKDGKIVGIKAKHEDEPVEIYADIIVAADGVESTIARKAGINTYAPPHEFDSGYEYEMLIEGFDPDLIHLWFGNEVAPRGYVWVFPKDEDRANVGIGINSDNPKTAKYYLDKWLEENNIPAKKLLEINVGLIPVGGFVKELAKDNVVVVGDAARQVNPMHGGGMAEAMEAGTIASKWIVKALEEENLSLLQNYTKEWWETDGKRLEKVLKVRRVTEKLTDEDLDLFIQILSGADAEKIASGDYAEVIKALLKHPKVLMSKRRLSLLKELL
B3: Ferredoxin:NADH oxidoreductase, β subunit (TK1685) (protein, UniProt Q5JIY6 1-284)
chain: MGYKITAKENLSVIDFFMEVEAPHVARSWKPGQFIVLIVDEKGERVPMSVYYADKDTGRVGMFIRRHGVTTFKLWYEKQVGDELLSVAGPLGKPIEVKHYGNVVFAADAVCAQAECYATLKAMKEAGNYTIAIHSFETKDHVYPEKFLSKPVADEFYITTEDGSVGRKGHYLDVLKELIEQDKVDIVFAGGKLGSLKKLAELTRPYGIPTITTVRQIMVDGTGMCGSCRILYDGEVKFACRDGPMFDAHKVDWDDVIRRDSRFAEQQALARERYLAKLREKGVI
B4: Pyruvate:ferredoxin oxidoreductase, δ subunit (protein, UniProt Q5JIJ8 1-105)
chain: MAESPFKADIERVQKEYSEKMTPGAIAYIPGSSVINKTGSWRVFMPEFNRDKCTRCYLCYIYCPEPAIYLDEEGYPVFDYDYCKGCGICANECPVDAIVMVRETK
B5: Ferredoxin:NADH oxidoreductase, β subunit (TK1326) (protein, UniProt Q5JGS9 1-291)
chain: MPYKILDKKELAMNEVWYKIHAPHVAKKVQPGQFVIVRAFPNGERIPLTPVTWDREEGWITLITFVRGKTTMRMANELKPGDEILNVAGPLGNPAPMEKFGRVLAIGLITGIVEVFPIARAWQEIGNEVTTLHVSPNPMVILREEFEQSVSRHIVEGFDLQPGWGMNEIAQELVKRATAKVRELLENEHFDMVLTVGPAGGQKAIFNVVKEYGIPMHADLHPIMVDATGMCGACRVTVGGEVKFACIDGPGFDAYKVDWDELIHRTGFYAPLERLALEHYLKQLQAQGGEQ
B6: 2-Oxoisovalerate ferredoxin oxidoreductase, δ subunit (protein, UniProt Q5JIK1 1-105)
chain: MNTLFGEKKAEAKKIVLTSVDQYPEAPISLGTTLSNFTGDWRTFIPVVNEDKCVKCYICWKFCPEPAIYIKPDGYVAIDYDYCKGCGICANECPTKAITMEKEEK
B7: Ferredoxin 3 (Fd-3), encoded by TK2012, with C-terminal HA-His6 extension (protein, UniProt Q5JDE8 1-138)
chain: T2 sequence
B8: Ferredoxin:NADP oxidoreductase, α subunit (TK1684) (protein, UniProt Q5JIW7 1-481)
chain: MAVRRKLIKERVPTPEVPVEERIKSFVEVNLGYDFASAVKEAERCLQCPVEYAPCIKGCPVHINIPGFISKLVEYRDNPDKAVREALRIIWNDNTLPAVTGRVCPQEDQCEGVCVMGKVGDPINIGKLERFVADYARKHGIEEELLCEFEERCTGELGKVAVVGAGPAGLTAAGELAKMGYKVTIFEALHKPGGVLAYGIPEFRLPKEILDQELAKLKRLGVEIRTDHVVGRTVTIEELLQEYDAVFIGTGAGTPKLLNVPGILLDRIYSANEFLTRVNLMKAYEFPEYDTPIAIGKKTIVIGAGNTAMDAARSALRLGSEVTIAYRRGREDMTARIEEIKHAEEEGVKFEFFLQPVEFIGDENGRVKAVKFEKMRPLDERDARGKRKIVGTGEYVTLEADTVIIAIGLEPNRIITETPGLKTNTNGTLVVDENLMTSIPGVFAGGDAIRGEATVILAMGDGKKAAKAIHEYIQAKRKANA
B9: 2-Oxoisovalerate ferredoxin oxidoreductase, γ subunit (protein, UniProt Q5JIK2 1-185)
chain: MIEIRFHGRGGQGAVTAANILASAAFKEGKYVQAFPFFGVERRGAPVTAFTRIDDKPIRIKTQIYEPDVVVVLDPSLLDTVDVTAGLKDGGIVIVNTEKSKEEVLEKLKKKPGKLALVDATGIALEILGLPITNTAILGAVAKATGLVKLESVQEAIKETFSGALGEKNAKAAEEAFNKTVVYEL
B10: Ferredoxin:NADH oxidoreductase, α subunit (TK1325) (protein, UniProt Q5JGT0 1-481)
chain: MPRRKLIKERVPTPERPPEERIKDFKEVNLGYTFELAVKEAERCLQCPYEYAPCIKGCPVHINIPGFISKLVEYRDDPDKAVKEALNVIWACNSLPATTGRVCPQEDQCEMNCVMGKVGDKINIGKLERFVADYAREKGIDEELLFEIIPKIEKKGQKVAIIGAGPAGLTAAGELAKLGYDVTIYEALHEPGGVLMYGIPEFRLPKEIVNKEIEKLRKLGVKILTDHVVGRTVTIEELLQEYDAVFIGSGAGTPRLINAPGINLNGIYTANEFLTRVNLMKAYLFPEYDTPVYVGKKVIVIGAGNTAMDAARSARRFGAEVTIAYRRGEEDVSAREEEVEHAKEEGIKFVYFVNPVEFIGDENGRVKAVKFEKMKALDERDARGKRKIVGTGEYVTLEADTVIIAIGKHPNRLIINTPGLKVERGKIVVDENLMTSIPGVFAGGDAIRGEATVILAMGDGRKAAKAIHEYLTKKRQEKANA
B11: Peroxiredoxin (TK0537) (protein, UniProt Q5JF30 1-216)
chain: MVVIGEKFPEVEVKTTHGVIKLPDYFAEQGKWFVLFSHPADFTPVCTTEFYAMQKRVDQFRELGVEPIGLSVDQVFSHIKWMEWIKENLGEEITFPVIADDRGELADKLGMIPSGATITARAVFIVDDKGIIRAIVYYPAEVGRDWDEILRLVKALKVSDEKGVALPHKWPNNELIGDKAIVPPASTVDEVKQREEAKAKGEIECYDWWFCYKKLE
B12: Rubrerythrin-related protein (TK0650) (protein, UniProt Q5JF77 1-174)
chain: MVPPELEEGLPLEKMKDFSLEELLGMAIKAEIGARKFYESLAERIDIQELKEKIEWLAGEEKKHEELLRKIYANMFPGKEVVFPKEHIGPELQPVARKLNGVQDIIDLIRWAMKAEEIAAQFYAKLEEMVDTEEKKRLMRYLSDMEWGHYYNLKAEYELLLDWEMYGQMMHVGP
B13: Pyruvate:ferredoxin oxidoreductase, α subunit (protein, UniProt Q5JIJ7 1-394)
chain: MPIRTVMKANEAAAWAAKLAKPKVIAAFPITPSTLVPEKISEFVANGELDAEFIKVESEHSAISACVGASAAGVRTFTATASQGLALMHEILFIAAGMRLPIVIAVGNRALSAPINIWNDWQDTISERDTGWLQFYAENNQEALDLILIAFKVAEDERVLLPAMVGFDAFILTHTVEPVEIPDQEVVDEFLGEYEPKHAYLDPERPITQGTLAFPAHYMEARYTVWEANENAKKVIDEVFAEFEKKFGRKYQKVEEYRTEDAEIIFVTMGSLAGTLKEYVDHLREKGLKVGAAKLTVYRPFPTEEVRELAKKAKVLALLEKNVTFSVGGALFQDFSRALVNLDERPKIVDFILGLGGRDVTFKDLDEALAIAQKALNGEEFDEVNWIGLRKEIL
B14: Ferredoxin 1 (Fd-1), encoded by TK1694, with C-terminal HA-His6 extension (protein, UniProt Q977X3 1-63)
chain: T1 sequence
B15: 2-Oxoacid:ferredoxin oxidoreductases, α subunit (protein, UniProt Q5JE85 1-396)
chain: MIIRGDEPEQIRLIKKLYKPGNYFMQGNEAVAYGAIFAGCRFYAGYPITPSSEIAETMARELPKLGGYYLQMEDEIGSIAAMVGASWTGLKVMTATAGPGFSLMQENLGYAVMTETPLVLVDVQRSGPSTGQATKGAQGDFFQARWGTHGDHPIIALSPTSGQDAFWEIIRAFNIAERLRTPVVMLFDGVLAHTRELVKIPDVEEVEITYRKLPQNEEEARLPFGDPHGDGVPPMPLFGHGYFTHVTGSTHKENGLRDVYTPEVHDRLVRRLHRKIEQNRHVYEKYEEYFTDDAEILVVSWGVTARPALGAVLKAREEGIKAGLFVPKTVHPFPGERMRALGKKVRAVLVPEMNLGQMILEVQRYVNDDVLLKGVNKIGGVPLTVNEILREIRGVA

Results are given in words; binding and its absence hold for the method and conditions named. In cells and extracts the contact can be indirect. These calls come from enrichment with a bait or labelling near it, and not all partners need be listed. No binding means not detected with the bait. Tags and fused reporters may be left off the sequences shown.

The target in one experiment is T1, Ferredoxin 1 (Fd-1), encoded by TK1694, with C-terminal HA-His6 extension (Thermococcus kodakarensis). The experiment in a line: affinity purification with mass spectrometry; C-terminally HA-His6-tagged Fd made from its own genomic locus; clarified lysates of cultures grown with S0 or without S0 (pyruvate); Ni2+-charged chelating column at 4 °C in 25 mM Tris-HCl pH 8.0, 500 mM NaCl, 10% glycerol; linear imidazole gradient; pooled Fd-containing fractions analysed by MuDPIT; proteins also found in equivalent fractions of parental strain TS559 subtracted.
On to B1, for which the binding result is reported as “binds”. With B2, the binding entry is reported as “no binding”.

As for B3, the binding result is reported as “binds”. Regarding B4, the binding result was “binds”. Turning to B5, the binding result is “binds”. Still for that read-out and setting: then B6, with “binds”; and B7, with “no binding”. For B8, the binding result is listed as “binds”. The same measure, in the same setting: then B9, with “binds”.

Regarding B10, the binding result is “binds”.

As to B11, the binding entry was “binds”. Take B12: the binding entry is reported as “binds”.

For B13, the binding entry is reported as “binds”.

The next experiment has as its target T2, Ferredoxin 3 (Fd-3), encoded by TK2012, with C-terminal HA-His6 extension (Thermococcus kodakarensis). Described as above.
As for B1, the binding entry is “binds”.

B14: the binding entry was “no binding”. On to B4, for which the binding entry is “binds”. Turning to B6, the binding result is reported as “binds”. With B9, the binding entry is on record as “binds”. Take B11: the binding entry is “binds”. For B13, the binding result is on record as “binds”.

The next experiment has the same target. Described as above. This is another data set of the same source.
As to B15, the binding result is reported as “no binding”.
